Laboratory results taken from paper PMC6689010.
No constants are given. Whether binding was seen depends on the method and setting. Binding seen in cells or lysates may run through a third protein. Some binding calls cover weakened binding; strength is not graded here.

By UniProt entry, the sequences of proteins in these tests, tags left out.
UniProt Q62432: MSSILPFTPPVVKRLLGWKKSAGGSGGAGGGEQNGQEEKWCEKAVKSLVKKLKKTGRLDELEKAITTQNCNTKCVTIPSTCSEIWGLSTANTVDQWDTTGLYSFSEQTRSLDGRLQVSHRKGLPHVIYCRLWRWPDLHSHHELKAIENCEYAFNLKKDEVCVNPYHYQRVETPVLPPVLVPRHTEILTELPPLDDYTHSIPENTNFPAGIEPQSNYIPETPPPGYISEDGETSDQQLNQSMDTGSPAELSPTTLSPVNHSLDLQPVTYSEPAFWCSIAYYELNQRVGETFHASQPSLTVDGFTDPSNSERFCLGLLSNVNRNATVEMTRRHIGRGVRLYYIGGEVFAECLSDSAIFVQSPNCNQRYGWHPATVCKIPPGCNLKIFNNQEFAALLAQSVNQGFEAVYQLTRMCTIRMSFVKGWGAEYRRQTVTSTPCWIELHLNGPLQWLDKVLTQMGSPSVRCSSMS
UniProt O35253: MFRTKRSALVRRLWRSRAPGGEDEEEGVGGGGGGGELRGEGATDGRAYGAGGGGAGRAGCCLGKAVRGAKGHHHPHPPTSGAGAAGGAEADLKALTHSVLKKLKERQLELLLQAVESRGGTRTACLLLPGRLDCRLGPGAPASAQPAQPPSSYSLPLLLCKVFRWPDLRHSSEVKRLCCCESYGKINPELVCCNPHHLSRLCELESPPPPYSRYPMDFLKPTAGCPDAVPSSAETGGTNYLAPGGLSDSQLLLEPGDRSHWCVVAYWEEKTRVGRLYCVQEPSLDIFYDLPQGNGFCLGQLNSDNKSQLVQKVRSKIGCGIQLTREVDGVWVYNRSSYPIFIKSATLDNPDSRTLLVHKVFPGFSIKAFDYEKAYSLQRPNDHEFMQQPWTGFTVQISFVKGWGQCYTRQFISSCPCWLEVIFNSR
UniProt Q9DBH0: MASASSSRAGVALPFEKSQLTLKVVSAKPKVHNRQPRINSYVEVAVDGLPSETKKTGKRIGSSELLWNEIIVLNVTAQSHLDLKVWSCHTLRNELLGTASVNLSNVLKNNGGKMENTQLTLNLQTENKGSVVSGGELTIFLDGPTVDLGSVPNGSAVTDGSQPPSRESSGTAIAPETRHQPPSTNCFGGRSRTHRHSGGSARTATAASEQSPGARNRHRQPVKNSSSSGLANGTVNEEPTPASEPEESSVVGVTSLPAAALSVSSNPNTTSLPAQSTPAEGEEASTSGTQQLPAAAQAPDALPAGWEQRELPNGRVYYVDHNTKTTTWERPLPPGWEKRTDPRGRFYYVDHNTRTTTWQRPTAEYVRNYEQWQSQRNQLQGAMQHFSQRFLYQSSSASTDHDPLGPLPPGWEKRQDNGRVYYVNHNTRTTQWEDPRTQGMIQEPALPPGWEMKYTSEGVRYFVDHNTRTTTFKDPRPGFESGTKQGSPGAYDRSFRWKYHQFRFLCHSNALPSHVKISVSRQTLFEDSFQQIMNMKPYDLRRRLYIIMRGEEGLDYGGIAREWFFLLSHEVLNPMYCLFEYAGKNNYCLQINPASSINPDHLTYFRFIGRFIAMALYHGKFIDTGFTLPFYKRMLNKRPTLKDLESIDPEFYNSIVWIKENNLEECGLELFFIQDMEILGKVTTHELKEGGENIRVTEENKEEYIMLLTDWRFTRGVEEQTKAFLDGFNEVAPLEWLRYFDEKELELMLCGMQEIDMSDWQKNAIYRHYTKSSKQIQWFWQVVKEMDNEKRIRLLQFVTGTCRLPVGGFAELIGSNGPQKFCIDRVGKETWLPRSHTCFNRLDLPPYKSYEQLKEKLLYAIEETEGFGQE

Assays:
[1] = target: SMAD2 protein (in NIH-3T3 cells) (mouse (endogenous in NIH-3T3)) (UniProt Q62432); assay: co-IP; Flag-tagged WWP2-FL, WWP2-N and WWP2-C ectopically expressed in NIH-3T3 cells; cell lysates, Pierce Direct Magnetic IP/CO-IP kit, western blot; SMAD7 rows following TGFβ1 stimulation
[2] = target: SMAD7 (in NIH-3T3 cells) (mouse (endogenous in NIH-3T3)) (UniProt O35253); assay: as above
[3] = target: SMAD2, endogenous (mouse cardiac (myo)fibroblasts) (mouse (endogenous in primary cardiac (myo)fibroblasts)) (UniProt Q62432); assay: co-IP; endogenous proteins in mouse WT primary cardiac (myo)fibroblasts, TGFβ1 stimulation; cell lysates, Pierce Direct Magnetic IP/CO-IP kit, western blot
[4] = target: SMAD7 (primary (myo)fibroblasts) (mouse (endogenous in primary cardiac (myo)fibroblasts)) (UniProt O35253); assay: as above

Row | binding [1] | binding [2] | binding [3] | binding [4] | Substance
1 | binds | binds |  |  | Flag-tagged WWP2-FL (full-length isoform of the E3 ubiquitin ligase WWP2) (from UniProt Q9DBH0 1-870) (enzyme)
2 |  |  | binds | binds | WWP2-FL, endogenous (mouse cardiac (myo)fibroblasts) (from UniProt Q9DBH0 1-870) (enzyme)
